The target in the assay is T1, FLAG-tagged LAP2α (wild type) (UniProt P42166).
T1 sequence: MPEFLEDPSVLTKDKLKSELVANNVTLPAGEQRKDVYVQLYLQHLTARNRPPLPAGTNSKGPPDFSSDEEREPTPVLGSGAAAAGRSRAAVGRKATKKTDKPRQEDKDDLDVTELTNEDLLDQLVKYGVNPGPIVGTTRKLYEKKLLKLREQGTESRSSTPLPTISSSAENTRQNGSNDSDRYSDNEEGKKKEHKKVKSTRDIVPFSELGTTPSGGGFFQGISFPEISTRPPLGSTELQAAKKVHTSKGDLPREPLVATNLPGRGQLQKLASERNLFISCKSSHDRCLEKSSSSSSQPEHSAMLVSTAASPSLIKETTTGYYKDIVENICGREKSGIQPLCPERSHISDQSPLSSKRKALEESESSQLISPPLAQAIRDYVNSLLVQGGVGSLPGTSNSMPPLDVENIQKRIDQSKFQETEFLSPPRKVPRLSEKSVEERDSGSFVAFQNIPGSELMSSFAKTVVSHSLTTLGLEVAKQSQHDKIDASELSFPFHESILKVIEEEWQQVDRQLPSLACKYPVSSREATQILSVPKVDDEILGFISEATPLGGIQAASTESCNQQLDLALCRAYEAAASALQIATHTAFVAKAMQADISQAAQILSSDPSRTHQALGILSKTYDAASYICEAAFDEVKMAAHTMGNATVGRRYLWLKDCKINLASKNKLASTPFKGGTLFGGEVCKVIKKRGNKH
The experiment in a line: affinity purification with mass spectrometry; HeLa cells stably expressing FLAG-LAP2α.

Chains of the proteins cited; added tags and fusions are not shown.
UniProt P09874: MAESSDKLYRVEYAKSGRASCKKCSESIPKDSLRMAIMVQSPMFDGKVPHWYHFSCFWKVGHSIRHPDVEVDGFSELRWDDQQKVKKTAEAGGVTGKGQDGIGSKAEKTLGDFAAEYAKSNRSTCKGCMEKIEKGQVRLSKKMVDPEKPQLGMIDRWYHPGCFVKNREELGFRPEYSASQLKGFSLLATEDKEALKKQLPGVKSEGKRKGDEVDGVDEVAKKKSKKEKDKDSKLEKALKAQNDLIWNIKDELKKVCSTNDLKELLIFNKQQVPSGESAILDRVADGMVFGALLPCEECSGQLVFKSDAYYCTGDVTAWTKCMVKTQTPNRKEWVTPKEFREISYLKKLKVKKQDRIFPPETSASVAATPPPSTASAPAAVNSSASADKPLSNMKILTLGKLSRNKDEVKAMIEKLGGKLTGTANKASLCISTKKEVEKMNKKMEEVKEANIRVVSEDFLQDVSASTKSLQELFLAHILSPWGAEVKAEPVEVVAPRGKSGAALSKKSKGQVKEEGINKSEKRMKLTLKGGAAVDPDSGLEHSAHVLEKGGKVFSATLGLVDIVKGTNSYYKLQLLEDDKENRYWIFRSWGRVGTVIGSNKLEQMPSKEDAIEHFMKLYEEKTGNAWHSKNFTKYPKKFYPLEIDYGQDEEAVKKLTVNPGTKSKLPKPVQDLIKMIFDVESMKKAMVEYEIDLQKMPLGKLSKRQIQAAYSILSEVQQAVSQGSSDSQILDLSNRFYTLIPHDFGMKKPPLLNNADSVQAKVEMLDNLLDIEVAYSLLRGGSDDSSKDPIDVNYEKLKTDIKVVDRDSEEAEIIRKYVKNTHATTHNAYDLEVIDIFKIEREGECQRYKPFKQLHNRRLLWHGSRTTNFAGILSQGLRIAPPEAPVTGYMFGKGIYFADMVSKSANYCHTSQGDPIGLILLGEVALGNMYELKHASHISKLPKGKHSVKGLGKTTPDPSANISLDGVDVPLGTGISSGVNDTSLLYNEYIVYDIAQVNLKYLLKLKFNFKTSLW

No constants are given. Whether binding was seen depends on the method and setting. In cells and extracts the contact can be indirect. A yes stands for co-enrichment or nearness to the bait. Other partners may have been found. Sequences can lack the tags named with a protein.

Take “poly(ADP-ribose) polymerase 1 (PARP1) (from UniProt P09874 1-1014) (enzyme)”: the binding result is “binds”.

The record behind these values is article PMC8883701.
